Assay results taken from PubChem BioAssay AID1728 (National Center for Advancing Translational Sciences (NCATS), 2009).
This list was built around the results that the source calls inconclusive (neither active nor inactive); the mix of calls is not that of the screen. Potencies of inconclusive entries are doubtful fits and often do not repeat. Active and inactive are the calls of the source. Calls follow the shape of the dose curve; as a rule, active = well fitted curve in the direction sought with a large enough effect; inconclusive = small, poorly fitted or top-dose-only effect, or another doubt; inactive = no such curve, though single readings can be large or run the other way.

Molecular target: RAF proto-oncogene serine/threonine-protein kinase (Homo sapiens) (UniProt P04049)
Assay: Assay for Inhibitors of the ERK Signaling Pathway using a Homogeneous Screening Assay: c-Raf Inhibition
Details: homogeneous biochemical assay; series mostly up to 76.9 µM; activity change, negative = inhibition: at the top concentration
Excerpt: qHTS Assay for Inhibitors of the ERK Signaling Pathway using a Homogeneous Screening Assay
NIH Chemical Genomics Center [NCGC]
NIH Molecular Libraries Screening Centers Network [MLSCN]
Assay Submitter (PI): Dr. Wei Zheng, NCGC/NIH
The Ras/extracellular-signal-regulated kinase (ERK) mitogen activated protein (MAP) kinase signaling pathway (ERK1/2 cascade) plays is a key role in transmitting signals from the cell surface to the nucleus (Nishida and Gotoh 1993; Chang and Karin, 2001). The cascade is initiated by the small G-protein Ras, which recruits Raf […], where activation occurs. Alternatively, this pathway can be activated by elevating intracellular cAMP.
Activation of the ERK pathway is essential in increased cell division and cell survival. Sustained and constitutive activation of the ERK pathway, however, has been linked to uncontrolled cell proliferation, increased cell survival, and tumor progression. Thus, the ERK has been as an attractive target for cancer chemotherapy in the past few years (Sebolt-Leopold and Herrera, 2004). Given its physiological and pathological importance, assessment of ERK phosphorylation has been broadly performed in both basic research and drug discovery. Most assays for the measurement of ERK phosphorylation use the antibody-based detection methods, such as western blot and ELISA. These assays require multiple reagent additions with cell wash steps and are not suitable for high-throughput screening.
The current cell-based ERK phosphorylation assay was performed using AlphaScreen platform. AlphaScreen is a two bead-based proximity-dependent chemical energy transfer luminescent assay platform. The assay reagents (ERK SureFire(TM) kit) were supplied from TGR BioSciences (Australia). In the presence of specific antibodies, phosphorylated ERK will bring "donor" and "acceptor" beads to a proximity range (<200 nm), and subsequently lead a chemical luminescent reaction upon exciting donor beads with 680 nm laser. To validate pathway hits from the cell-based assay, enzyme assays consisting of EGFR tyrosine kinase, Raf and MEK were used as a means of deciphering the enzymes of target for the prioritized group of compounds derived from the HEK-293 cell based assay. The compounds were tested against significant members of the ERK signaling pathway EGFR and EGFR mutants (EGFR L858R, EGFR T790M, and EGFR L858R T790M). In order to establish the specificity of the prioritized compounds for EGFR and EGFR mutants, the compounds were also assayed against other important ERK signaling pathway enzymes, c-RAF and MEK-1.
NCGC Assay Protocol Summary:
The HTRF kinase assay (components supplied as kit by Cisbio) was chosen for the EGFR and EGFR mutant enzyme assays that applied the time resolved fluorescence resonance energy transfer (TR-FRET) principle. A peptide substrate is labeled with a biotin that can bind to XL665 labeled streptavidin and the anti-phosphoresidue antibody is labeled with Eu+. Upon phosphorylation of the substrate, the antibody binds to phosphorylated substrate that enables TR-FRET detection in homogenous assay format.
An HTRF Kinease TK assay kit (Cisbio, Bedford, MA) was used to develop the MEK assay (Harbert et al., 2008. Harbert C, Marshall J, Soh S, Steger K. Development of a HTRF Kinase Assay for Determination of Syk Activity. Current Chemical Genomics. 1: 20-26. 2008). MEK protein was obtained from Invitrogen. The assay buffer was composed of 50 mM HEPES (pH 7.0), 5 mM MgCl2, 5mM DTT, 0.1 % NaN3, 0.1 % BSA and 0.1 mM orthovanadate.
The HTRF assays were preformed according to the HTRF Kinease TK kit. Optimization for each enzyme was preformed in 384 well format (data not included). All reagents were dispensed into 1536 well plates.
(1) Enzyme, 2 nl MEK at 3 nM final
(2) Compound, 22 nl, Library Compounds in 0.128 to 10 mM titration series or control
(3) Reagent, 1.5 ul 10 uM ATP and 0.25 uM substrate final
(4) Incubation for 30 min, Ambient conditions
(5) Reagent, 3 ul antibody and XL-665
[…]

SMILES	Potency	activity change, negative = inhibition
Cn1nc(-c2ccccc2)nc2c(=O)n(C)c(=O)nc1-2	inconclusive: 891 nM [inhibitor, full curve]	–
O=C1NC(=O)C(=Cc2ccccc2Oc2ccc(F)cc2)C(=O)N1	–	inactive: -7.77%
Cc1nc2c(=O)n(C)c(=O)nc-2n(C)n1	inconclusive: 2510 nM [inhibitor, full curve]	–
CC1=CC(=O)c2c(O)cccc2C1=O	inconclusive: 25100 nM [inhibitor, partial curve, poor fit]	–
CCn1nc(-c2ccccc2)nc2c(=O)n(C)c(=O)nc1-2	inconclusive: 708 nM [inhibitor, full curve]	–
CCn1nc(-c2cccs2)nc2c(=O)n(C)c(=O)nc1-2	inconclusive: 708 nM [inhibitor, full curve]	–
CCN1C(=O)NC(=O)/C(=C/c2cc(C)n(-c3sc(C)c(C)c3C#N)c2C)C1=O	–	inactive: -9.23%
